AC50 data for 40 compounds are collected here from PubChem BioAssay AID493014 (National Center for Advancing Translational Sciences (NCATS), 2011).

This experiment can be described thus: qHTS Assay to Find Inhibitors of Chronic Active B-Cell Receptor Signaling. The settings on record: ABC-DLBCL IkBa-CBG/CBR reporter, luminescence ratio (green luciferase fused to IkBa over red control in TMD8 lymphoma cells), 4 h. Summed up:
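Doxycycline induced both beetle luciferases in TMD8 lymphoma cells; IKK-driven degradation limits the IkappaBalpha-fused green signal, while red luminescence normalises for cell number and nonspecific effects. Compounds tested up to 46 uM, 4 hrs.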

[1] abbreviates: measured here: CBR red luminescence, cell number.

Each structure is given as a SMILES string. Several values for one entry are separate records, joined by “and”; a condition that tells them apart may be missing. Identical values can stand only once. The list shows a part of the results. The main result of the screen is listed elsewhere. These columns were measured beside it and carry no call. The list favours compounds with an active or inconclusive main result. Potencies come from curve fits of mixed quality, noted in brackets.

With `Cc1ccccc1OCC(=O)OCC(=O)Nc1ccc(Cl)cn1`, under setting [1], the half-maximal activity concentration (AC50) is 23.1 µM [rising, partial curve, poor fit].
Still for that read-out and setting: next, `O=C(Nc1ccc(OCc2ccccc2)cc1)c1cccs1`: 8.91 µM [rising, partial curve, poor fit]; `CC1(C)C2CCC1(CS(=O)(=O)NC1CCCC1)C(=O)C2` (stereo not given): 22.4 µM [falling, partial curve, poor fit].
Still for that read-out and setting: to `CC[C@]12c3[nH]c4cc(CCC(=O)N(C)C)ccc4c3CCN1C(=O)[C@@H](CC(=O)NCCc1ccccn1)C[C@@H]2C(=O)N1CCN(C(=O)c2ccco2)CC1` belongs 29.1 µM [rising, single point]; to `COc1cccc(C2C3=C(CC(C)(C)CC3=O)Nc3cc4c(cc32)OCO4)c1` (stereo not given), 4.61 µM [falling, full curve, poor fit]; to `COc1ccc(NC(=O)CSCC(=O)N(C)Cc2c(F)cccc2Cl)cc1`, 14.6 µM [rising, partial curve].
On the same count and under the same terms, next, `COC(=O)c1ccccc1NC(=O)c1c(O)c2c([nH]c1=O)CCCC2`: 0.103 µM [rising, full curve, poor fit]; `CC1=NN(c2ccc(C)cc2C)C(=O)C1C(c1cccc(O)c1)C1C(=O)N(c2ccc(C)cc2C)N=C1C` (stereo not given): 29.1 µM [falling, single point].
With `CC(C)OC(=O)c1cccc(NC(=O)c2ccccc2)c1`, the AC50 under setting [1] was 29.1 µM [falling, single point].
As to `CCOc1ccc(CSC2=NCCN2)cc1[N+](=O)[O-]`, the AC50 (measured here: IkBa-CBG green luminescence) is 20.6 µM [falling, partial curve, poor fit].
As for `CC1(C)CCCN(Cc2c(O)ccc3c(=O)c(-c4nc5ccccc5s4)c(N)oc23)C1`, the AC50 under setting [1] was 1.26 µM [falling, partial curve, poor fit].
On the same count and under the same terms, next, `COc1ccccc1-n1nnnc1SCC(=O)Nc1ccc(C)c(N)c1`: 31.6 µM [falling, single point].
Same read-out and setting: next, `CCC(C)[C@H](NC(=O)NCc1ccccc1Cl)C(=O)OC` (stereo not given in full): 35.5 µM [falling, partial curve, poor fit].
On the same count and under the same terms, to `CC(C)(C)NC(=S)N1CCC(C(=O)c2ccc(Cl)cc2)CC1` belongs 7.94 µM [rising, partial curve, poor fit].
Consider `O=c1c2c(-c3ccccc3)ccnc2[nH]n1-c1ccccc1`, for which, under setting [1], the AC50 is 1.78 µM [falling, full curve] and 3.98 µM [falling, full curve].
Turning to `COc1cccc(C2NC(=O)CCC2[N+](=O)[O-])c1OC` (stereo not given), under setting [1], the AC50 was 3.98 µM [rising, partial curve, poor fit].
On the same count and under the same terms, to `COc1ccc(CN(C)C(=O)c2cccc(S(=O)(=O)N3CCN(c4ccccc4)CC3)c2)c(OC)c1OC` belongs 25.9 µM [falling, partial curve, poor fit].
Regarding `O=C(c1cccc(S(=O)(=O)NCc2ccccc2)c1)N1CCCC1`, the concentration at half-maximal activity (AC50) under setting [1] was 7.94 µM [rising, partial curve].
Same read-out and setting: to `COC(=O)CCC(=O)COc1ccccc1C#N` belongs 10 µM [rising, partial curve]; to `CC(/C=C/c1ccccc1F)=N\NC(=O)c1cccc(F)c1`, 22.4 µM [falling, partial curve]; to `O=C(Nc1cccc(Oc2ccc3c(c2)C(=O)NC3=O)c1)c1ccco1`, 9.2 µM [falling, partial curve].
Same read-out and setting: next, `COc1ccccc1C(=O)Oc1ccc2c(c1)O/C(=C\c1ccncc1)C2=O`: 23.1 µM [falling, single point]; `O=C(NC1CCCCC1)c1ccc2c(c1)N(Cc1ccccc1)C(=O)c1ccccc1S2`: 28.2 µM [falling, partial curve, poor fit].
The same measure, in the same setting: next, `COc1ccc(N2CCCC2)c(NC(=O)COc2ccccc2Cl)c1`: 1.78 µM [falling, full curve, poor fit]; `COc1ccccc1Nc1cc(C(=O)N2CCc3ccccc3C2)c2ccccc2n1`: 11.2 µM [falling, partial curve, poor fit]; `Cc1nc2ccc(NC(=O)N3CCOCC3)cc2s1`: 29.1 µM [rising, single point].
Regarding `CC(=O)Oc1oc(-c2ccccc2)nc1/C=N/c1ccccn1`, the AC50 under setting [1] was 7.94 µM [falling, partial curve, poor fit].
Regarding `O=C(O)COc1ccc(/C=C/c2nc3ccc([N+](=O)[O-])cc3s2)cc1`, the AC50 under setting [1] was 0.316 µM [falling, full curve].
On the same count and under the same terms, to `CCC(C)NS(=O)(=O)c1cccs1` (stereo not given) belongs 0.517 µM [falling, partial curve, poor fit].
Take `CCc1ccc(OCC(=O)N/N=C\c2ccco2)c([N+](=O)[O-])c1`: the AC50 under setting [1] is 29.1 µM [rising, single point].
On the same count and under the same terms, next, `COc1ccc2cc(-c3cc(C(=O)OCC(=O)Nc4c(C)n(C)n(-c5ccccc5)c4=O)c4ccccc4n3)ccc2c1`: 20.6 µM [rising, single point]; `Cc1ccc(S(=O)(=O)/N=C2\C=C(Nc3cccc(C(=O)O)c3)C(=O)c3ccccc32)c(C)c1`: 4.47 µM [falling, full curve, poor fit]; `CSc1nsc(NC(=O)OCc2ccc(Cl)cc2)n1`: 7.08 µM [falling, partial curve].
Take `COc1ccc2cc(CN(CC3COCCO3)S(=O)(=O)c3ccc(Cl)cc3)c(=O)[nH]c2c1` (stereo not given): under setting [1], the AC50 is 10 µM [rising, partial curve, poor fit].
`CCn1c(SC(C)C(=O)O)nnc1-c1cccnc1` (stereo not given): the AC50 under setting [1] was 2.06 µM [rising, partial curve].
For the compound `Cc1ccccc1C(OCC(O)CN1CCCCC1CCO)c1ccccc1` (stereo not given), the AC50 under setting [1] is 11.2 µM [falling, partial curve].
On the same count and under the same terms, next, `O=C(C1=COCCO1)N1CCN(S(=O)(=O)c2cccc(F)c2)CC1`: 0.103 µM [rising, full curve, poor fit]; `CC(NC(=O)COc1ccccc1)C(c1ccccc1)N1CCN(C)CC1` (stereo not given): 0.282 µM [rising, full curve]; `CN(C(=O)COC(=O)c1ccc2c(c1)OCO2)C1CCCCC1`: 29.1 µM [rising, single point].
Same read-out and setting: next, `COc1ccccc1/C=C1\SC(=O)N(CCC(=O)N2CCCCC2CCO)C1=O` (stereo not given): 11.2 µM [falling, partial curve, poor fit].
